Results deposited as PubChem BioAssay AID504804 (Drosophila RNAi Screening Center, 2011).

Test: 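Knock-downs shielding fly cells from apoptosis caused by DNA damage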 (primary screen)
Cell system: Drosophila Kc cells
Reagents: long dsRNA against Drosophila genes, 0.5 µg dsRNA per well
Timing: 96 h (48 h knock-down, then 48 h drug)
Treatment: doxorubicin 5 µg/ml for 48 h, added 48 h after dsRNA
Measurement: 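Luminescent ATP counts per replicate, not normalised, reflecting viable cells after 48 h dsRNA knock-down followed by 48 h of 5 µg/ml doxorubicin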
Direction: raw ATP luminescence: higher = more viable cells, protection from doxorubicin
Call rule: 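z-score of 2 or more over plate mean in both duplicates, retained only when retests and separate dsRNAs confirm the protection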
In all, the deposit lists about 19,000 reagents; shown is an unselected part of those that have a named target and a result. Over the whole deposit, 47 (0.25%) were called active. 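Signals are raw, not normalised; exact z-scores behind calls not deposited; actives needed confirmation, so some wells reaching 2 SD are inactive.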 A plus sign joins genes that one reagent is predicted to hit. Reagent sequences are not shown.

no.	gene knocked down	dsRNA	raw ATP luminescence, replicate 1	raw ATP luminescence, replicate 2	Outcome
1	CG8064	DRSC16373	41890	46693	inactive
2	CG12661	DRSC17864	33500	37470	inactive
3	CG30338	DRSC05166	93307	1.14e5	inactive
4	CR42548	DRSC09514	77873	91943	inactive
5	Slimp	DRSC13656	1.78e5	2.06e5	inactive
6	SIDL	DRSC16077	46827	22990	inactive
7	sr	DRSC13284	2.02e5	1.94e5	inactive
8	sr	DRSC17067	19030	20210	inactive
9	ND-18	DRSC19441	2.51e5	2.55e5	inactive
10	CG10465	DRSC04848	53753	61100	inactive
11	COX4L	DRSC04841	45340	50080	inactive
12	CrebB	DRSC20232	2.51e5	2.40e5	inactive
13	rau	DRSC03125	1.06e5	74370	inactive
14	Polr2I	DRSC16832	52860	49940	inactive
15	Snrk	DRSC07192	43287	43557	inactive
16	Pitslre	DRSC11874	20500	31250	inactive
17	Non3	DRSC16359	46687	48910	inactive
18	Strip	DRSC08194	49643	47963	inactive
19	Dhx15	DRSC06036	59637	71157	inactive
20	ppk14	DRSC03238	23703	25200	inactive
21	Lipt1	DRSC05600	1.12e5	99787	inactive
22	Lipt1	DRSC07183	64263	49690	inactive
23	CG1409	DRSC17910	37150	38540	inactive
24	ymp	DRSC13720	2.76e5	2.93e5	inactive
25	ymp	DRSC14482	60640	51350	inactive
26	CG40006	DRSC03787	85403	67350	inactive
27	CG40006	DRSC03809	69020	61327	inactive
28	CG40006	DRSC03814	74170	61667	inactive
29	CG40006	DRSC03817	68807	62120	inactive
30	M1BP	DRSC16566	40500	17093	inactive
31	Uba4	DRSC02194	32713	70217	inactive
32	PH4alphaSG1	DRSC15080	56420	41850	inactive
33	CG3430	DRSC02713	88480	62843	inactive
34	kel	DRSC03554	80063	68220	inactive
35	yellow-e3	DRSC15170	67290	68520	inactive
36	Jwa	DRSC02048	78850	45080	inactive
37	Stoml2	DRSC04326	94967	81300	inactive
38	CG10903	DRSC14281	57440	55270	inactive
39	hec	DRSC19895	3.54e5	3.27e5	inactive
40	phu	DRSC16390	62453	55203	inactive
41	tara	DRSC17076	52430	50560	inactive
42	SNF4Agamma	DRSC13461	2.24e5	2.28e5	inactive
43	SNF4Agamma	DRSC13463	1.99e5	2.12e5	inactive
44	SNF4Agamma	DRSC15879	39170	71510	inactive
45	SNF4Agamma	DRSC16847	50793	48183	inactive
46	Snx6	DRSC03081	93127	57850	inactive
47	CG2063	DRSC06811	38220	82907	inactive
48	CG34106	DRSC01578	3.32e5	2.68e5	inactive
49	Cyp6a15Psi	DRSC07377	41680	73727	inactive
50	UQCR-14L	DRSC15288	68170	55220	inactive
51	kek3	DRSC03553	74820	73950	inactive
52	CG10195	DRSC02026	51323	51723	inactive
53	CG2076	DRSC19832	2.80e5	2.90e5	inactive
54	CheA87a	DRSC14839	80070	75120	inactive
55	asrij	DRSC04175	41477	46943	inactive
56	spz3	DRSC02391	43057	57717	inactive
57	spz3	DRSC03008	40673	57633	inactive
58	tst + CG10375	DRSC14237	29523	27080	inactive
59	EMC4	DRSC11638	50563	54770	inactive
60	papi	DRSC00693	89197	78757	inactive
61	fbp	DRSC02077	92463	59977	inactive
62	CG42714	DRSC08798	1.51e5	1.11e5	inactive
63	CG17198 + CG17197	DRSC15190	61560	60370	inactive
64	CG17198 + CG17197	DRSC15191	53220	61040	inactive
65	Drak	DRSC19778	2.92e5	2.97e5	inactive
66	CG13251	DRSC11699	61950	54527	inactive
67	CG34426	DRSC09977	67007	66487	inactive
68	bru3	DRSC09280	96433	1.02e5	inactive
69	bru3	DRSC09687	19607	22397	inactive
70	bru3	DRSC09887	59280	59207	inactive
71	Hr3	DRSC06118	21620	35040	inactive
72	Hr3	DRSC07441	65133	53837	inactive
73	PolD1	DRSC11138	92237	86633	inactive
74	Diedel	DRSC14317	60760	53150	inactive
75	CG14810	DRSC17693	2.22e5	2.23e5	inactive
76	CG14810	DRSC17961	59220	53950	inactive
77	CG15439	DRSC00453	1.75e5	1.73e5	inactive
78	Uxs	DRSC10941	30613	35633	inactive
79	eIF2Bbeta	DRSC18465	70660	40120	inactive
80	Cdep	DRSC12028	71280	51600	inactive
81	Cdep	DRSC12220	39147	33100	inactive
82	Cdep	DRSC12291	47650	48327	inactive
83	Mau2	DRSC15550	59153	23810	inactive
84	CG11262	DRSC09831	91650	87860	inactive
85	Osi2	DRSC12174	73437	55913	inactive
86	Cph	DRSC17507	1.66e5	1.91e5	inactive
87	Cph	DRSC18434	28490	29610	inactive
88	CG31460	DRSC14370	55870	30827	inactive
89	CG12560	DRSC02174	44113	64240	inactive
90	CG8292	DRSC03082	41257	86493	inactive
91	CG31495	DRSC16762	88060	71400	inactive
92	Ir68a	DRSC10599	75480	70463	inactive
93	Spn28Da	DRSC02162	41360	71437	inactive
94	CG5885	DRSC02910	81817	55093	inactive
95	CG32121	DRSC09265	83590	82103	inactive
96	CG4733	DRSC15634	57570	70860	inactive
97	sv	DRSC17221	68520	81770	inactive
98	CG14711 + Zaf1	DRSC14934	65337	73967	inactive
99	CG14971	DRSC08430	33187	32410	inactive
100	CG2065	DRSC06813	43240	97820	inactive
101	Noc1	DRSC10921	48590	37717	inactive
102	ldbr	DRSC10933	38380	36617	inactive
103	CG42458	DRSC10335	23737	25603	inactive
104	frj	DRSC03250	83650	74923	inactive
105	Rpn11	DRSC03422	31070	29217	inactive
106	mod(mdg4) + pre-mod(mdg4)-Z + pre-mod(mdg4)-T	DRSC13477	2.13e5	1.85e5	inactive
107	mod(mdg4) + pre-mod(mdg4)-Z + pre-mod(mdg4)-T	DRSC17001	34190	29150	inactive

Ordered by “raw ATP luminescence, replicate 1” (lowest first): 16 of the entries above.
gene knocked down	dsRNA	raw ATP luminescence, replicate 1	raw ATP luminescence, replicate 2	Outcome
tst + CG10375	DRSC14237	29523	27080	inactive
spz3	DRSC03008	40673	57633	inactive
asrij	DRSC04175	41477	46943	inactive
spz3	DRSC02391	43057	57717	inactive
EMC4	DRSC11638	50563	54770	inactive
CG10195	DRSC02026	51323	51723	inactive
CG17198 + CG17197	DRSC15191	53220	61040	inactive
CG17198 + CG17197	DRSC15190	61560	60370	inactive
UQCR-14L	DRSC15288	68170	55220	inactive
kek3	DRSC03553	74820	73950	inactive
CheA87a	DRSC14839	80070	75120	inactive
papi	DRSC00693	89197	78757	inactive
fbp	DRSC02077	92463	59977	inactive
CG42714	DRSC08798	1.51e5	1.11e5	inactive
CG2076	DRSC19832	2.80e5	2.90e5	inactive
Drak	DRSC19778	2.92e5	2.97e5	inactive
